Assay results as given in PubChem BioAssay AID652054 (National Center for Advancing Translational Sciences (NCATS), 2013).
“And” between values parts separate entries of the source, which are not always exact repeats. Equal entries are not always repeated. About 9,100 (2.5%) of roughly 360,000 compounds were called active. The shares of active, inactive and inconclusive entries below differ from those in the screen. No stated cut-off is given here; in the data, active means max response below about -50%; inconclusive means no clear call, values can overlap the other calls; inactive means above that.
On the % scale 0 is the no-effect control and ±100 the full control effect.

By UniProt entry, the sequences of proteins in these tests, tags left out.
UniProt P35462, whole entry, looked up: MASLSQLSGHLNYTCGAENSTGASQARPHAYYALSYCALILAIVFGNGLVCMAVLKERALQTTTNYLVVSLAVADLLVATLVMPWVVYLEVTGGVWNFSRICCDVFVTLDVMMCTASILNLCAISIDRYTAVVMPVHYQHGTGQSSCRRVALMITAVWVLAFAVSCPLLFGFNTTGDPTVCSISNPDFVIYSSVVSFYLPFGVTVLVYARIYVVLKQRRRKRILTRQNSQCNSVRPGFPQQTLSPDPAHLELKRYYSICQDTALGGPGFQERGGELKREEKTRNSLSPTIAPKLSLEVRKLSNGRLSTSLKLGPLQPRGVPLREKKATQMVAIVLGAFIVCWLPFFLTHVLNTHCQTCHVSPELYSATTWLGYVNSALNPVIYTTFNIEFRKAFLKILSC

These molecules were tested against D(3) dopamine receptor (Homo sapiens) (UniProt P35462) (assay: qHTS of D3 Dopamine Receptor Antagonist: qHTS). Settings: D3R cells, DiscoveRx beta-arrestin luminescence, antagonist mode; hits give low values.
Method in brief: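 Cells expressing the human receptor were seeded at 1500 cells/well, incubated overnight at 37 degrees C in 5% CO2, then exposed to library compounds with dopamine controls for 90 minutes at 37 degrees C before luminescent detection.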
`Cc1cc(N)ccc1-n1nc2ccccc2n1` was tested, and the max response, negative = inhibition was inconclusive: -31.8%. For `COc1ccc(NC(=O)c2ccc(CNc3c(NC4CCCCC4)c(=O)c3=O)cc2)c(OC)c1`, the max response, negative = inhibition was inconclusive: -44% and inconclusive: -30.9%. With `Cc1ccc(-n2c(C)cc3c2CC(C)(C)CC3=O)cc1C` the max response, negative = inhibition was active: -88.4%. With `CC1CN(CCOc2ccc(Cl)c(Cl)c2)CC(C)O1` (stereo not drawn) the max response, negative = inhibition was inconclusive: -31.3%. With `CCN(Cc1ccccc1)S(=O)(=O)c1nc2nc(C)c(C)c(C)n2n1` the max response, negative = inhibition was inconclusive: -32.4%. For `COc1ccc(C(=O)N2CCCC2(C)C(=O)O)cc1C(F)(F)F` (stereo not drawn), the max response, negative = inhibition was inconclusive: -39.2%. With `COc1ccccc1N1CCN(CCCCN2C(=O)c3ccccc3C2=O)CC1` the max response, negative = inhibition was active: -107%. With `Cc1ccc(OCc2ccc(C(=O)Nc3nccs3)o2)cc1C` the max response, negative = inhibition was inconclusive: -33.4%. With `c1coc(-c2nc3ccccc3s2)c1` the max response, negative = inhibition was inactive: -6.82%. With `C=CCN(C)CC/C=C1\c2ccccc2CSc2ccccc21` the max response, negative = inhibition was active: -73.4%. In the case of `CC(C)=C1CCC(C)CC1=NNC(N)=S` (stereo not drawn), the max response, negative = inhibition was inconclusive: -31.6%. In the case of `COc1ccc(CN2CCNC(=O)C2CC(=O)NC2CCC2)c(OC)c1` (stereo not drawn), the max response, negative = inhibition was inconclusive: -30.1%. For `Cc1c(N2C(=O)CS/C2=N\N=C\c2ccc(Cl)cc2)c(=O)n(-c2ccccc2)n1C`, the max response, negative = inhibition was inactive: 4.86%. For `O=[N+]([O-])c1cccc(N/N=C/c2cc([N+](=O)[O-])ccc2O)c1`, the max response, negative = inhibition was inconclusive: -34.6%. With `O=C1NC(=Nc2ccc(Cl)cc2)/C(=C/c2ccco2)S1` the max response, negative = inhibition was inconclusive: -32.1%. For `O=C(CSCc1cccc(Br)c1)N=Nc1c(O)[nH]c2ccccc12`, the max response, negative = inhibition was inactive: 12%. For `CC(Nc1ccc(Cl)cc1)c1cc(Cl)ccc1O` (stereo not drawn), the max response, negative = inhibition was active: -54.6%. For `CN(C)CCNC(=O)Cn1nc(C(F)F)cc1C1CC1`, the max response, negative = inhibition was inconclusive: -30.7%. In the case of `O=C(COc1cccc(Cl)c1Cl)NC1CC1`, the max response, negative = inhibition was inconclusive: -32.9%. For `COC(=O)c1cc(C)[nH]c2c(C)cc3nc4ccccc4c3c12`, the max response, negative = inhibition was inactive: 60.1%. With `CSc1cccc(CN2CCC(Oc3ccc(C(=O)N4CCCCC4)cc3)CC2)c1` the max response, negative = inhibition was inconclusive: -36.8%. `Cc1csc(NC(=O)c2ccccc2C(=O)O)n1` was tested, and the max response, negative = inhibition was inconclusive: -47%. In the case of `C=CCN=c1scc(-c2ccc3c(c2)NC(=O)CO3)n1/N=C(\C)c1ccccn1`, the max response, negative = inhibition was active: -53.4%. `Cn1c(=O)cc(OCC(=O)NCCCN2CCN(c3ccccc3F)CC2)c2ccccc21` was tested, and the max response, negative = inhibition was inconclusive: -37.9%. For `O=C(Nc1ccc2c(c1)OCCO2)C(C1CC1)N1CCN(C/C=C/c2ccccc2)CC1` (stereo not drawn), the max response, negative = inhibition was active: -58.8%. With `CCC(c1nnnn1-c1c(C)cccc1C)N1CCCN(Cc2ccc(F)cc2)CC1` (stereo not drawn) the max response, negative = inhibition was inconclusive: -39%. `Cc1ccc2nc(C)cc(Nc3ccc([N+](=O)[O-])cc3)c2c1` was tested, and the max response, negative = inhibition was inconclusive: -34.5%. With `COCCNC(=O)c1c(NC(=O)c2nc(SC)ncc2Cl)sc2c1CCCC2` the max response, negative = inhibition was inactive: 9.77%. `CC1CCN(CC(=O)Nc2cccc([N+](=O)[O-])c2)CC1` was tested, and the max response, negative = inhibition was active: -58.1%. For `CCCn1ncc(CN2CCC(n3nccc3NC(=O)c3ccccc3Cl)CC2)c1C`, the max response, negative = inhibition was inactive: 6.78%. For `Cc1ccc(C(=O)O)cc1N1C(=O)c2cccc3c([N+](=O)[O-])ccc(c23)C1=O`, the max response, negative = inhibition was inactive: -14.9%. `CCS(=O)(=O)N1Cc2cc(C(=O)NCCOC)nc(-c3cccc(-c4ccncc4)c3)c2[C@@H]1CCO` was tested, and the max response, negative = inhibition was inconclusive: -37.3%. For `Cc1ccccc1N(C(=O)Cc1c[nH]c2ccccc12)C(C(=O)NC1CCCCC1)c1ccco1` (stereo not drawn), the max response, negative = inhibition was inconclusive: -30.7%. For `COc1ccc(/C=C2/C(=O)ON=C2c2ccccc2)cc1OC`, the max response, negative = inhibition was inconclusive: -46.2%. For `COC(=O)c1ccc(-c2nc3ccccc3[nH]2)cc1`, the max response, negative = inhibition was inconclusive: -36.6%. In the case of `CC1C(c2ccccc2)N(C)C(c2ccccc2)CC1(O)c1ccccc1` (stereo not drawn), the max response, negative = inhibition was inconclusive: -32.3%. In the case of `O=[N+]([O-])c1cnn(-c2nc(-c3ccccc3)cc(C(F)(F)F)n2)c1`, the max response, negative = inhibition was inactive: -23.9%. `O=C(NC(c1ccccc1)C(Cl)(Cl)Cl)c1ccccc1` (stereo not drawn) was tested, and the max response, negative = inhibition was inconclusive: -30.8%. `COc1cc(/C=C(\C#N)c2nc3ccccc3o2)ccc1O` was tested, and the max response, negative = inhibition was inconclusive: -41.6%. In the case of `O=C(CNc1ccccc1)N/N=C/c1ccc([N+](=O)[O-])o1`, the max response, negative = inhibition was inconclusive: -44.1%. `Cc1onc(-c2ccc(Cl)cc2)c1-c1ccnc(SCC(=O)Nc2cc(Cl)cc(Cl)c2)n1` was tested, and the max response, negative = inhibition was inconclusive: -37%. `C/C(=N/Nc1ccc([N+](=O)[O-])cc1)c1ccc(C)cc1C` was tested, and the max response, negative = inhibition was inconclusive: -47.5%. In the case of `O=C(COC(=O)c1ccccc1Cl)NC(=O)NCc1ccccc1`, the max response, negative = inhibition was inconclusive: -31.6%. In the case of `CCc1nc(NCc2ccc3c(c2)OCO3)c2oc3ccccc3c2n1`, the max response, negative = inhibition was active: -65.8%. With `O=C(CCl)N1N=C(c2ccco2)CC1c1ccco1` (stereo not drawn) the max response, negative = inhibition was inactive: 0%. `C=CCN1c2ccccc2[C@]23C[C@@H](C(=O)OC)N(C(=O)c4ccc(Br)cc4)C2=NC(C(=O)OC)=C(C(=O)OC)[C@H]13` was tested, and the max response, negative = inhibition was inactive: 3.24%. For `O=C(Cn1[nH]c(=O)c2ccccc2c1=O)Nc1ccc2c(c1)CCC2`, the max response, negative = inhibition was inconclusive: -31.7%. With `Cc1ccc(S(C)=O)cc1-n1c(=O)n(Cc2ccccc2)c(=O)c2[nH]cnc21` (stereo not drawn) the max response, negative = inhibition was active: -104%. `COc1ccc(C(=O)/C=C/c2ccc(OC)c(O)c2)c(F)c1` was tested, and the max response, negative = inhibition was inconclusive: -33.4%. With `COc1ccc(CN2C[C@@H](CO)O[C@@H](n3cnc4c(N5CCN(CCO)CC5)ncnc43)C2)cc1` the max response, negative = inhibition was inactive: -17.3%. `CC(C)Oc1ccc(CNC(=S)N/N=C/c2ccc([N+](=O)[O-])cc2)cc1` was tested, and the max response, negative = inhibition was inconclusive: -32%. With `CCn1c(=O)c(C(=O)NNC(=O)c2ccccc2Cl)c(O)c2ccccc21` the max response, negative = inhibition was inactive: -12.6%. `CC1CCN(c2ccc(/C=N\Nc3nncn3N)cc2[N+](=O)[O-])CC1` was tested, and the max response, negative = inhibition was inconclusive: -35%. In the case of `COc1cc(-c2coc3c(C(=O)NCc4cccc(Cl)c4)cccc23)ccc1O`, the max response, negative = inhibition was inactive: -0.0663%. `CNc1ccc(Br)cc(C(=O)/C=C/c2ccc(Cl)cc2Cl)c1=O` was tested, and the max response, negative = inhibition was inconclusive: -42.5%. In the case of `COC(=O)[C@@]1(Cc2ccc(F)cc2)[C@H]2c3cc(C(=O)N(C)C)n(C)c3C[C@H]2CN1C(=O)c1ccccc1`, the max response, negative = inhibition was inconclusive: -34.8%. With `O=C(Nc1cccc(-c2cccc(F)c2)c1)C1CCN(C2CCC2)CC1` the max response, negative = inhibition was inconclusive: -35.7%. `Cc1ccc2c(c1)sc(C)[n+]2CCCS(=O)(=O)[O-]` was tested, and the max response, negative = inhibition was active: -85.6%. For `Oc1ccc(Br)cc1-c1cc(-c2ccco2)[nH]n1`, the max response, negative = inhibition was inconclusive: -39.2%. In the case of `COc1ccc(Cl)cc1NC(=S)NNC(=O)CC(C)C`, the max response, negative = inhibition was inconclusive: -40.6%. With `CSc1ncccc1C(=O)NCCc1ccc(Cl)cc1` the max response, negative = inhibition was inconclusive: -37.3%. `CCCCCOC(=O)C1=C(C)Nc2nnnn2C1c1ccccc1Cl` (stereo not drawn) was tested, and the max response, negative = inhibition was inconclusive: -30.9%. In the case of `CCOc1ccc(CN2CCC(n3nccc3NC(=O)c3ccccc3OC)CC2)cc1`, the max response, negative = inhibition was inactive: -6.22%. For `O=C(NC1CCN(Cc2ccccc2)CC1)c1ccc(Cn2c(=S)[nH]c3ccc(N4CCOCC4)cc3c2=O)cc1`, the max response, negative = inhibition was active: -71.3%. With `Cc1ccc2cc(N)ccc2n1` the max response, negative = inhibition was inactive: -6.1%. With `O=C(C[n+]1ccc2ccccc2c1)c1cccc2ccccc12` the max response, negative = inhibition was inconclusive: -45.7%. For `Cc1ccc(C)c2[nH]c(=O)c(C(c3nnnn3CCc3ccccc3)N3CCOCC3)cc12` (stereo not drawn), the max response, negative = inhibition was inconclusive: -42.7%. With `O=C(COc1cccc2cccnc12)N/N=C/c1ccc(O)cc1` the max response, negative = inhibition was inactive: 5.58%. For `Cc1ccc(CCN2CC(C(=O)NCCN3CCCCCC3)CC2=O)cc1` (stereo not drawn), the max response, negative = inhibition was inconclusive: -37.7%. `O=c1[nH][nH]c(-c2ccccc2)c1C=Nc1cccc(Cl)c1` was tested, and the max response, negative = inhibition was inconclusive: -32.8%. With `CS(=O)(=O)c1ccc(Cl)c(NC(=O)c2ccc(-n3cncn3)c([N+](=O)[O-])c2)c1` the max response, negative = inhibition was inconclusive: -31.5%. For `Cc1ccc(C(=O)c2cc([N+](=O)[O-])ccc2N2CCCCC2)cc1`, the max response, negative = inhibition was active: -65.4%. `O=C(N/N=C/c1ccncc1)c1ccccc1` was tested, and the max response, negative = inhibition was inconclusive: -37.2%. For `NCCCC(=O)N1c2ccccc2Sc2ccccc21`, the max response, negative = inhibition was inconclusive: -33.7%. With `CSc1ccccc1OCc1cc(C(=O)N(C)C(C)c2ccccn2)no1` (stereo not drawn) the max response, negative = inhibition was inconclusive: -33.3%. For `C(#Cc1ccccc1)CN1CCCCC1`, the max response, negative = inhibition was inconclusive: -30.6%. `CCCCN(C)CCNC(=S)Nc1ccc2nc(N3CCN(CC)CC3)cc(C)c2c1` was tested, and the max response, negative = inhibition was inconclusive: -37.6%. For `N#Cc1ccc(C2=CC(=O)C[C@H](c3ccc4c(c3)OCO4)C2)cc1`, the max response, negative = inhibition was inconclusive: -47.3%. In the case of `CCOC(=O)/C(C#N)=C1\Nc2ccccc2N=C1N(CC(C)C)CC(C)C`, the max response, negative = inhibition was inconclusive: -32.8%. With `CCOC(=O)C(C(=O)OCC)C(Nc1ccc(Br)cc1)c1ccccc1` (stereo not drawn) the max response, negative = inhibition was inconclusive: -45.1%. With `Nc1c(C(=O)NC2CC2)c2nc3ccccc3nc2n1-c1ccc2c(c1)OCO2` the max response, negative = inhibition was inactive: 8.31%. With `O=C(NCc1cccnc1)/C(=C\c1ccc(-c2cccc(Cl)c2)o1)S(=O)(=O)c1ccccc1` the max response, negative = inhibition was active: -50.3%. `CC(C)CNC(=O)C1(C)CCCCCN1Cc1ccccc1-c1ccccc1` (stereo not drawn) was tested, and the max response, negative = inhibition was inconclusive: -35.5%. `Cc1ccc(/C=C/C(=O)N2CCN(S(=O)(=O)c3ccc(C)c(C)c3)CC2)o1` was tested, and the max response, negative = inhibition was inconclusive: -35.4%. For `CC1CCCN(CC(O)COc2ccc(Cl)cc2)C1` (stereo not drawn), the max response, negative = inhibition was active: -58.4%. `Cc1ccc(S(=O)(=O)Nc2ccc3c(c2)nc(CN2CCCC2)n3C)cc1` was tested, and the max response, negative = inhibition was inconclusive: -30.7%. For `C[C@H]1CNC(=O)c2c(C(=O)N3CCN(C(=O)OC(C)(C)C)CC3)ncn21`, the max response, negative = inhibition was active: -55.2%. `COc1ccc(CNCCC(c2ccccc2)c2ccc3c(c2)OCO3)cc1` (stereo not drawn) was tested, and the max response, negative = inhibition was active: -73.6%.
